Consider ten molecules from the supplement of paper PMC11348887.

Where a name gives a salt, the structure may show the parent alone. ± gives the standard deviation of the averaged measurements. The list shows a part of the results. Most entries show no effect beyond the scatter of the controls.

Holding throughout (conditions): 5 µM; treatment: days 7-14 after plating, readout day 21
Test [1] relates to hPSC-derived cortical neurons (WA09). Briefly: nucleus area z-score vs screen plate; higher = larger nuclei (more mature).
The test system is the same in test [2]. Briefly: total neurite length per nucleus (MAP2) z-score; higher = more neurite growth.
Test [3] has the same test system. Briefly: nucleus roundness z-score vs screen plate; higher = rounder nuclei (more mature).
The test system is the same in test [4]. Briefly: KCl-induced FOS+/EGR-1+ double-positive nuclei fraction z-score (KCl minus unstimulated); higher = stronger activity-induced IEG response.

In test [1], `COc1ccc(-c2ccc3ncc4c(c3c2)n(-c2ccc(N3CCNCC3)c(C(F)(F)F)c2)c(=O)n4C)cn1` gave a nucleus area z-score of -11.3. The “total neurite length per nucleus (z-score)” value in test [2] is -3.98. This molecule displayed a nucleus roundness z-score in test [3] of 4.95. The “KCl-induced FOS+/EGR-1+ double-positive nuclei fraction z-score” value in test [4] was -0.479.

Turning to `Cc1cnc(C(=O)NCCc2ccc(S(=O)(=O)NC(=O)NC3CCCCC3)cc2)cn1` [Glipizide], the nucleus area z-score in test [1] was -0.0259. Further, the “total neurite length per nucleus (z-score)” value in test [2] stood at 0.681. Further, the nucleus roundness z-score in test [3] was found to be 1.76. Besides, in test [4], the “KCl-induced FOS+/EGR-1+ double-positive nuclei fraction z-score” value was -0.088.

In test [1], `CC(=O)c1cc([N+](=O)[O-])c(Sc2cccc(Cl)c2Cl)s1` registered a nucleus area z-score of 2.66. For the same molecule, the “total neurite length per nucleus (z-score)” value in test [2] is -0.447. In test [3], the nucleus roundness z-score is -0.436. For the same molecule, the “KCl-induced FOS+/EGR-1+ double-positive nuclei fraction z-score” value in test [4] is -0.408.

Turning to `Clc1ccc2c(c1)CCc1cccnc1C2=C1CCNCC1` [Desloratadine], the nucleus area z-score in test [1] is -0.234. Besides, the “total neurite length per nucleus (z-score)” value in test [2] came to 0.393. Further, in test [3], the nucleus roundness z-score came out at 0.778. For the same molecule, the “KCl-induced FOS+/EGR-1+ double-positive nuclei fraction z-score” value in test [4] is 0.335.

For the molecule `CC[C@H]1OC(=O)[C@H](C)[C@@H](O[C@H]2C[C@@](C)(OC)[C@@H](O)[C@H](C)O2)[C@H](C)[C@@H](O[C@@H]2O[C@H](C)C[C@H](N(C)C)[C@H]2O)[C@](C)(O)C[C@@H](C)C(=O)[C@H](C)[C@@H](O)[C@]1(C)O` [Erythromycin], the nucleus area z-score in test [1] was 0.834 ± 0.51. For the same molecule, in test [2], the “total neurite length per nucleus (z-score)” value is -0.546 ± 0.27. The nucleus roundness z-score in test [3] is -0.223 ± 0.026. Moreover, the “KCl-induced FOS+/EGR-1+ double-positive nuclei fraction z-score” value in test [4] stood at 0.163 ± 1.8.

In the case of `O=C(Nc1cc(C(F)(F)F)ccc1N1CCCCC1)c1ccncc1`, the nucleus area z-score in test [1] was -0.0663. Moreover, the “total neurite length per nucleus (z-score)” value in test [2] worked out at 1.51. The molecule also registered a nucleus roundness z-score in test [3] of 0.00641. The “KCl-induced FOS+/EGR-1+ double-positive nuclei fraction z-score” value in test [4] is -0.148.

In test [1], `C=C1C(=O)[C@]23[C@H](O)[C@H]1CC[C@H]2[C@@]12CO[C@]3(O)[C@@H](O)[C@@H]1C(C)(C)CC[C@@H]2O` [Oridonin] yielded a nucleus area z-score of 0.0409. The “total neurite length per nucleus (z-score)” value in test [2] is -0.618. For the same molecule, the nucleus roundness z-score in test [3] was -0.999. Also, the “KCl-induced FOS+/EGR-1+ double-positive nuclei fraction z-score” value in test [4] was -0.974.

In the case of `O=C1CC2(CCCC2)CC(=O)N1CCCCN1CCN(c2ncccn2)CC1` [Buspirone HCl], the nucleus area z-score in test [1] amounted to 1.66. Also, the “total neurite length per nucleus (z-score)” value in test [2] was -0.265. This molecule also yielded a nucleus roundness z-score in test [3] of -2.01. In addition, the “KCl-induced FOS+/EGR-1+ double-positive nuclei fraction z-score” value in test [4] amounted to 1.1.

`CC(c1cc2ccccc2s1)N(O)C(N)=O` (stereo not given) [Zileuton] had a nucleus area z-score in test [1] of 0.109. Besides, in test [2], the “total neurite length per nucleus (z-score)” value stood at 0.534. Also, the nucleus roundness z-score in test [3] amounted to 0.129. Further, in test [4], the “KCl-induced FOS+/EGR-1+ double-positive nuclei fraction z-score” value came to 0.714.

In test [1], `CCn1cc(C(=O)O)c(=O)c2cnc(N3CCCC3)nc21` [Piromidic Acid] gave a nucleus area z-score of 1.42. For the same molecule, the “total neurite length per nucleus (z-score)” value in test [2] is -0.297. This molecule displayed a nucleus roundness z-score in test [3] of -1.37. The “KCl-induced FOS+/EGR-1+ double-positive nuclei fraction z-score” value in test [4] was -0.525.
